According to US20110230471A1, “BENZONAPHTYRIDINE COMPOUNDS AS INHIBITORS OF AUTOTAXIN” (MERCK PATENT GESELLSCHAFT MIT BESCHRANKTER HAFTUNG, priority 2008, published 2011):

Target: recombinant autotaxin (Homo sapiens, UniProt Q13822)
Experiment: Autotaxin test (enzyme test), Amplex Red
Details: Autotaxin inhibition (enzyme test), substrate LPC 75 μM
Experimental: The autotaxin activity is measured indirectly using Amplex Red reagent. Amplex Red is measured here as fluorogenic indicator for the H2O2 formed. In detail, autotaxin converts the substrate lysophosphatidylcholine (LPC) into phosphocholine and lysophosphatidylic acid (LPA). After this reaction, the phosphocholine is reacted with alkaline phosphatase to give inorganic phosphate and choline. In the next step, choline is oxidised by choline oxidase to give betaine, with formation of H2O2. H2O2 reacts with Amplex Red reagent in the presence of peroxidase (horseradish peroxidase) in a 1:1 stoichiometry and forms the highly fluorescent resorufin. The fluorescence is measured in a reaction-dependent kinetic mode in order that fluorescent signals from possible other fluorescent substances which are not involved in the reaction can be corrected out.
1.5 μl of a standard solution or of the test substances (substances with the name A(n))in individual concentrations dissolved in 20 mM Hepes pH 7.2 with a maximum of 7.7% of DMSO are pre-incubated together with 10 μl (16 ng) of highly purified recombinant autotaxin in a black microtitre plate provided with 384 wells at 22° C. for 30 min. […] The activity of autotaxin is calculated indirectly via detection of the H2O2 formed. […]

Molecule COc1ccc(Cl)cc1NC(=O)CN1CCc2nc3ccccc3c(C(=O)N3CCC(N(C)C)CC3)c2C1 has an IC50 (TABLE 2 (B compounds)) of 100 to 1000 nM.
With COc1cc(OC)c(NC(=O)CN2CCc3nc4ccccc4c(C(=O)N4CCN(CCO)CC4)c3C2)cc1Cl the IC50 (TABLE 1 (A compounds)) was > 1000 nM.

The structures given here were assigned with low confidence; some may be wrong.
